Test [1] addresses T1, Forkhead box A1 (FOXA1), endogenous in prostate cancer cells (human (endogenous in LNCaP and CWR-R1)) (UniProt P55317).
T1 sequence: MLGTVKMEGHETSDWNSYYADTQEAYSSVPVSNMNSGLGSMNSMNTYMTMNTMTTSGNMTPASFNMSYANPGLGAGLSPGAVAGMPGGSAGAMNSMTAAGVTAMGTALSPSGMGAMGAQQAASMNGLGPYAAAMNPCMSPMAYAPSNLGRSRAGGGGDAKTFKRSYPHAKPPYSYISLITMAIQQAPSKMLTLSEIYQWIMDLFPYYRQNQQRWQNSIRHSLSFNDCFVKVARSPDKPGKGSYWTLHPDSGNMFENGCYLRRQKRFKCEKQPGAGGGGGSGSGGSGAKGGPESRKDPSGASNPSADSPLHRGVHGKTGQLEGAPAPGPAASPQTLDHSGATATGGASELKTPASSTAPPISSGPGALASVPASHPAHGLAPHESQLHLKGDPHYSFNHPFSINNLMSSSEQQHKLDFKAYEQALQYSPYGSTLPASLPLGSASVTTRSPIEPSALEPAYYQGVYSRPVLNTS
Kind of test: co-IP; endogenous proteins in sonicated lysates of LNCaP and CWR-R1 cells; immunoprecipitated on Protein G Dynabeads with anti-AR (PG-21), anti-FOXA1 or normal rabbit IgG; eluates analysed by Western blot. In general terms: A western blot detects proteins with antibodies after separation by electrophoresis.

Chains of the proteins cited; added tags and fusions are not shown.
UniProt P10275: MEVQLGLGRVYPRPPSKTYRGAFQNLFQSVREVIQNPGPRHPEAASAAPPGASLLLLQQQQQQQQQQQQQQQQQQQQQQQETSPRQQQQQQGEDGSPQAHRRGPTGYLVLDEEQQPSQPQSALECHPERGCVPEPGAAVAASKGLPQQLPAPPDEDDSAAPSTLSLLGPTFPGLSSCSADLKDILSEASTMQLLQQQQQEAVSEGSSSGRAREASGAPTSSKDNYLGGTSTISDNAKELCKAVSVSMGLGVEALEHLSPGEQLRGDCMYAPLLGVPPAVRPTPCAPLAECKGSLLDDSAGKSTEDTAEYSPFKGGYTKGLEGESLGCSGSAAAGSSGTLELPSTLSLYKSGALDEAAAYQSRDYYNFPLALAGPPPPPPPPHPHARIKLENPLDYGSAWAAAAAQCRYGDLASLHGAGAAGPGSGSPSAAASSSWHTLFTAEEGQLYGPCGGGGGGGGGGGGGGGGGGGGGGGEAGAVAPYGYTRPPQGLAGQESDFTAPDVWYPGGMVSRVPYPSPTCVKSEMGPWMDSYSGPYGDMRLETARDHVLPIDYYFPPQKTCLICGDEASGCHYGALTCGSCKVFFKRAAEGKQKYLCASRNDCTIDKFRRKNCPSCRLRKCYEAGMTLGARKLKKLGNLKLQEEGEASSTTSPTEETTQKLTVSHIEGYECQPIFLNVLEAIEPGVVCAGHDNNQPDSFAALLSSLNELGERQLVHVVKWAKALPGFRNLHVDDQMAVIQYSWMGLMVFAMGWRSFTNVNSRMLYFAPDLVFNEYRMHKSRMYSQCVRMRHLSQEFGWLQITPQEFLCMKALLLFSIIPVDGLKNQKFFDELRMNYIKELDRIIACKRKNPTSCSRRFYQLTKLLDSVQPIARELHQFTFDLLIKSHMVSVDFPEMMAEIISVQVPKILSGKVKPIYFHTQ

Test [2] addresses T2, N-terminal-tagged FOXA1 (NanoBiT construct) (UniProt P55317).
T2 sequence: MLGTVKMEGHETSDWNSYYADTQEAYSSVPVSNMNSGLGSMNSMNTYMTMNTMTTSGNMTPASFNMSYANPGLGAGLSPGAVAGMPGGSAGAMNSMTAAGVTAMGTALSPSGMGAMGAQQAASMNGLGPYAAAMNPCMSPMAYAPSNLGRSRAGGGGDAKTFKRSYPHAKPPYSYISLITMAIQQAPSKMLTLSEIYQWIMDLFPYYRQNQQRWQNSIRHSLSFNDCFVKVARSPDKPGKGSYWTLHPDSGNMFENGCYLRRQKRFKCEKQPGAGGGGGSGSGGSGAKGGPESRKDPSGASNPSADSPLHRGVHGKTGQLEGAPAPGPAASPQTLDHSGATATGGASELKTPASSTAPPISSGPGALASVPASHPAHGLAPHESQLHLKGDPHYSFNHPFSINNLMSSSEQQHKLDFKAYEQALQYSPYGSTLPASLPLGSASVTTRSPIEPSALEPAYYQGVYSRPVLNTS
Kind of test: split reporter; NanoBiT split luciferase; LgBiT- and SmBiT-tagged constructs (N- or C-terminal tags) co-transfected into HEK293 cells in 96-well plates, 100 ng plasmid per well; luminescence with background subtracted.

Test [3] concerns the target N-terminal tagged AR (NanoBiT construct) (UniProt P10275). The test is described as above.

Results are given in words; binding and its absence hold for the method and conditions named. Binding seen in cells or lysates may run through a third protein. Some binding calls cover weakened binding; strength is not graded here. For some of these results: Tags and fused reporters may be left off the sequences shown.

With “homeobox transcription factor NKX3.1, endogenous in prostate cancer cells (from UniProt Q99801 1-234)”, the binding entry in test [1] is given as “binds”.

“N-terminal-tagged NKX3.1 (NanoBiT construct) (from UniProt Q99801 1-234)”: the binding entry in test [2] and in test [3] was “binds” in each case.

B1: N-terminal-tagged FOXA1 (NanoBiT construct) (protein, UniProt P55317 1-472)
chain: MLGTVKMEGHETSDWNSYYADTQEAYSSVPVSNMNSGLGSMNSMNTYMTMNTMTTSGNMTPASFNMSYANPGLGAGLSPGAVAGMPGGSAGAMNSMTAAGVTAMGTALSPSGMGAMGAQQAASMNGLGPYAAAMNPCMSPMAYAPSNLGRSRAGGGGDAKTFKRSYPHAKPPYSYISLITMAIQQAPSKMLTLSEIYQWIMDLFPYYRQNQQRWQNSIRHSLSFNDCFVKVARSPDKPGKGSYWTLHPDSGNMFENGCYLRRQKRFKCEKQPGAGGGGGSGSGGSGAKGGPESRKDPSGASNPSADSPLHRGVHGKTGQLEGAPAPGPAASPQTLDHSGATATGGASELKTPASSTAPPISSGPGALASVPASHPAHGLAPHESQLHLKGDPHYSFNHPFSINNLMSSSEQQHKLDFKAYEQALQYSPYGSTLPASLPLGSASVTTRSPIEPSALEPAYYQGVYSRPVLNTS
As for B1, the binding result in test [3] is recorded as “binds”.

(Values after paper PMC11763476.)
